Values of other authors as cited in patent US11813311B2, “Treatment and prevention of metabolic diseases” (Singapore Health Services PTE LTD., priority 2019, dated 2023).
At least one structure is not confirmed: it was looked up by name or label, or the drawing left a doubt.

System: rheumatoid synovial cells
Conditions: cited from earlier work

## C[C@@H]1C[C@H]2[C@@H]3CCC4=CC(=O)C=C[C@]4(C)[C@@]3(F)[C@@H](O)C[C@]2(C)[C@@]1(O)C(=O)CO [dexamethasone]
  expression of IL-11: reduction in the expression of IL-11
